The results in this text go back to paper PMC12130850.

Experiment [1] concerns the target T1, RAM1 mutant m3 (all interacting residues of region r3 changed to alanine), yeast two-hybrid fusion (L. japonicus).
T1 sequence: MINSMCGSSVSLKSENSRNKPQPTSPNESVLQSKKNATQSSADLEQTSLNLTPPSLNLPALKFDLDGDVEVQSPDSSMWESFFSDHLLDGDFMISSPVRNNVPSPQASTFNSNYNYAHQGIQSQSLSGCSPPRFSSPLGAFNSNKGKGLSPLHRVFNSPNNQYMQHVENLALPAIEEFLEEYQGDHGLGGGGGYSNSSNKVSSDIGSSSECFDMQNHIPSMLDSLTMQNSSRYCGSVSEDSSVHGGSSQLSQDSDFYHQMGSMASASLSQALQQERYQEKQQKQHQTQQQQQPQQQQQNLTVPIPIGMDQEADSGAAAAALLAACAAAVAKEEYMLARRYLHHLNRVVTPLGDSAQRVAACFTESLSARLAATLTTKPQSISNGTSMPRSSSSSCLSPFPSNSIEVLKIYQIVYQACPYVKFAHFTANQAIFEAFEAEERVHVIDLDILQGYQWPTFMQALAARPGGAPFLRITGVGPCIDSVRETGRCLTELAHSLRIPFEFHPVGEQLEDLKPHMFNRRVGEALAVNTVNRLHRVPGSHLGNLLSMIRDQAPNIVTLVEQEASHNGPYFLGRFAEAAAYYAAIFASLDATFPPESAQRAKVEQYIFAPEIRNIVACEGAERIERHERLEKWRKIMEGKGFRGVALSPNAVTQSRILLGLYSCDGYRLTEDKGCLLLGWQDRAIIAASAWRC
In words: two-hybrid; GAL4-based Y2H; wild-type and mutant versions of RAM1 as bait, five AM-induced WRI transcription factors as prey (by the legend); 3-AT.

Experiment [2] has as its target T2, RAM1m2 (V319, L323, L576, L579 and H580 substituted with alanine), yeast two-hybrid fusion (L. japonicus).
T2 sequence: T1 sequence with A312Q, A316L, A317Q, A318L, A320H, A327E, A355M, A583S, A587D
The description is as above.

For experiment [3], the target named is T3, RAM1 mutant m1 (H320 substituted to alanine), yeast two-hybrid fusion (L. japonicus).
T3 sequence: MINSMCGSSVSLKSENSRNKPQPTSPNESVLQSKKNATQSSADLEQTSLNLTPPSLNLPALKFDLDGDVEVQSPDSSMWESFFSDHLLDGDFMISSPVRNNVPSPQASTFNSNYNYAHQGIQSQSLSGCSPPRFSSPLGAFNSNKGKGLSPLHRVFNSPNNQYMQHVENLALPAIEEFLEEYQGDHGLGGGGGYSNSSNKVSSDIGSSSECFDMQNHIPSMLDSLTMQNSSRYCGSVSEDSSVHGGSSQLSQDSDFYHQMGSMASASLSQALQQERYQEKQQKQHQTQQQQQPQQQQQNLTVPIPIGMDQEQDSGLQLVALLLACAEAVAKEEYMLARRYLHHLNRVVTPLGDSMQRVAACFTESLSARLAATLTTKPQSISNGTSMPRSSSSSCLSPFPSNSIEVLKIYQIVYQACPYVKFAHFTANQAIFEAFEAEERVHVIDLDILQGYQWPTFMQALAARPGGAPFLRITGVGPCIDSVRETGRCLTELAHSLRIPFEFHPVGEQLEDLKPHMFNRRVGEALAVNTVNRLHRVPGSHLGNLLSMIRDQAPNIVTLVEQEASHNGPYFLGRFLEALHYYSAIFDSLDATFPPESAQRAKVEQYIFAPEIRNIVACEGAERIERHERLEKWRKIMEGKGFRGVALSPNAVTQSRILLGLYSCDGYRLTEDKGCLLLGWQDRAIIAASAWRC
The experiment is described as above.

Experiment [4] has as its target WRI5b fused to a half of Citrine for BiFC (L. japonicus). In words: split reporter; BiFC with halves of Citrine in cortex cells of colonized L. japonicus hairy roots, 5 wpi; fusions under their endogenous promoters.
For experiment [5], the target named is CBX1 fused to a half of Citrine for BiFC (L. japonicus). The description is as above.
Experiment [6] has as its target WRI5a, yeast two-hybrid fusion (L. japonicus). The experiment can be described thus: two-hybrid; GAL4-based Y2H; RAM1 and its truncated versions as prey (AD), WRI proteins, CBX1 and its truncated or mutant versions as bait (BD); yeast growth without histidine and with 3-AT.
In experiment [7] the target is WRI5c, yeast two-hybrid fusion (L. japonicus). The experiment is described as above.
Experiment [8] concerns the target WRI3, yeast two-hybrid fusion (L. japonicus). The description is as above.
The target in experiment [9] is WRI5b, yeast two-hybrid fusion (L. japonicus). The description is as above.

Residue numbers refer to the chain shown, from its start. Results are given in words; binding and its absence hold for the method and conditions named. For part of these data: A result given as binding can be weak or reduced; the word gives no strength. For part of these data: Tags and fused reporters may be left off the sequences shown. For part of these data: Binding seen in cells or lysates may run through a third protein.

In the case of “WRI3, yeast two-hybrid fusion (L. japonicus)”, the binding entry in experiment [1] was “no binding”; in [2], “no binding”; in experiment [3], “binds”.

In the case of “WRI5a, yeast two-hybrid fusion (L. japonicus)”, the binding entry is given as “no binding” in experiment [1], “no binding” in experiment [2] and “binds” in [3].

In the case of “WRI5b, yeast two-hybrid fusion (L. japonicus)”, the results for the binding result in experiment [1], in experiment [2] and in [3] were “no binding”, “no binding” and “binds”, respectively.

As to “WRI5c, yeast two-hybrid fusion (L. japonicus)”, the figures for the binding entry in [1], in [2] and in experiment [3] were “no binding”, “no binding” and “binds”, respectively.

B1: RAM1m3 of the BiFC assay (protein, UniProt A0A145P7T2 1-693)
chain: T1 sequence
As to B1, the binding result in [4] and in experiment [5] was “no binding” each time.

B2: RAM1-M5, truncated version of RAM1 (RAM1 GRAS domain), yeast two-hybrid fusion (domain or fragment, UniProt A0A145P7T2 309-692)
chain: DQEQDSGLQLVHLLLACAEAVAKEEYMLARRYLHHLNRVVTPLGDSMQRVAACFTESLSARLAATLTTKPQSISNGTSMPRSSSSSCLSPFPSNSIEVLKIYQIVYQACPYVKFAHFTANQAIFEAFEAEERVHVIDLDILQGYQWPTFMQALAARPGGAPFLRITGVGPCIDSVRETGRCLTELAHSLRIPFEFHPVGEQLEDLKPHMFNRRVGEALAVNTVNRLHRVPGSHLGNLLSMIRDQAPNIVTLVEQEASHNGPYFLGRFLEALHYYSAIFDSLDATFPPESAQRAKVEQYIFAPEIRNIVACEGAERIERHERLEKWRKIMEGKGFRGVALSPNAVTQSRILLGLYSCDGYRLTEDKGCLLLGWQDRAIIAASAWR
Regarding B2, the binding entry in experiment [6], in experiment [7], in experiment [8] and in [9] was “binds” in each case.
